From PubChem BioAssay record AID1159506 (NCATS, 2015).

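Genome-wide siRNA knockdown in TC32 Ewing sarcoma cells, comparing luciferase light from an NR0B1-promoter reporter with a CMV-promoter reporter 48 hours after transfection.
Each siRNA was applied at 20 nM.
A z-score of the log NR0B1-over-CMV signal, less the median of siRNAs with the same seed; more negative means a stronger specific loss of the NR0B1 reporter.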

The strongest results of the screen are mostly left out here.
Sequences are the guide (antisense) strand, without overhang.

| Sequence | gene | seed-corrected z-score |
|---|---|---|
| `UAUCUUGCUAUUGCUAGGC` | HPGDS | 0.7615 |
| `UGAAAUUUUAGCUUGGUGU` | FAM213B | -0.01041 |
| `UGUAGAUCCGGAAUUCGGC` | BMP7 | -1.044 |
| `UUUCAUAUCCAAGCUCACC` | OGFRL1 | -0.1586 |
| `UAAGAGUAAAGGAUCCCAG` | OR7A5 | 0.4575 |
| `UUCCGGUUGAGGUAAAUAC` | TOMM20L | 0.2514 |
| `UGAAUUUUUGUUGGUGAGC` | OFCC1 | 0.6161 |
| `UAGAUAUUGGUGUAGAAGA` | GPR4 | 0.4185 |
| `UCUGGAAGUACUGAGAAAC` | APOA2 | -0.05222 |
| `UCUGUUGGUAGUGUACUGC` | ALAS1 | 0.0003504 |
| `UUUUUGACAGCAACGACUG` | RGS9 | 0.04156 |
| `UGCUGGUCGAGUUGGUUUC` | KCNK4 | -0.1045 |
| `UUUGGACAACUGCAAGCUG` | PSG3 | 0.1044 |
| `UGAAGUAUCGCUCUACAUC` | ZNF230 | 0.1508 |
| `UUUCUGAAUAGAGAGUGCC` | NAPG | 0.5575 |
| `UGUGAGGACAGUGAAGCCG` | LLGL2 | 0.1021 |
| `UGUCUAAGUACUGUGAGUG` | NAALADL2 | 0.5196 |
| `AUAUCCUCAAGCACUGUUC` | ANGPTL1 | 0.6047 |
| `UCUGAACCGUCCUCAUUCC` | LOC729218 | 0.1261 |
| `UAUGUCAUCACAGGAGUUG` | NUP62CL | 0.7962 |
| `UAUCGCAUGAAUCAGCUCC` | NUP188 | 0.6373 |
| `UAUACUCCAUUCUAAGUUG` | CCDC144B | 0.58 |
| `UAAUGAUCUACCCGAAUUG` | PMS2P10 | -0.6691 |
| `UCUAGAAUCCGCUUUAUUA` | THAP7 | 0.5479 |
| `AGUUGUUUAAGCUAGUGUC` | ZFAND5 | -1.288 |
| `UAGAAAUCCUUUUCUAGCC` | OTOP3 | -0.1068 |
| `UUCAGGUCCAACAAGCUCU` | KLF9 | -0.3844 |
| `UUCGGUUCAUCUGCGUCAG` | DSG1 | 0.2372 |
| `UUUAGGGUCACUCUAAUUG` | ARV1 | 0.772 |
| `UAAAGGCUCUCUUGUAUGG` | LOC728416 | 0.006166 |
| `AAUCCUCUGAAUGACAUUC` | MPHOSPH6 | 0.6039 |
| `UGCUCGCUCAUGUAAUUGC` | PLK1 | -0.8349 |
| `UUGUUUAGGAAUAGGCUCC` | TSPAN18 | -0.4695 |
| `ACGGUAAAAACACCGGUGU` | LIMD1-AS1 | 0.5826 |
| `UGAAAAACAGGGCAUAUGC` | TOX3 | 0.01743 |
| `UCAUCUAACAGGGAAUAGC` | FAM199X | -0.3446 |
| `UUAAUAAUAUGGAGCUUGG` | CLIC6 | -0.1714 |
| `UCUGUCUCGACAGUAUAUG` | CFHR1 | 1.735 |
| `UCUUCGUCAGUGAUCAGGG` | TSPY3 | -0.07552 |
| `UCUGUUGAAUAACAGGACC` | DEFA6 | 0.517 |
| `UUCCUUGAUACAGUUCUGC` | NDUFB10 | -0.1442 |
| `UUUCAUAGUAAGGAAGCUG` | RBM11 | -0.7648 |
| `UUUGUAUUCCUUGUAAUCU` | BCLAF1P1 | -0.08472 |
| `UUACCAAAGACUAUGACAC` | ZNF735 | 0.3308 |
| `UGAGGAAAAAGGUAUCCCU` | B4GALNT4 | -0.3376 |
| `AAAUGUAUGAGAGCCUGAG` | DPH2 | 0.3665 |
| `UUUGAACCAAUGUCUUCAG` | MIXL1 | 0.1897 |
| `UGAGCAAAGAGACACUGCC` | FAM218A | -0.1522 |
| `UGCUGUCACACCAUUCACC` | ASB9 | -0.1871 |
| `UUCCGGAUUCUGACAGGUG` | UGT3A2 | 0.2331 |
| `AUAUAUAAUGUAACCUUGC` | RPL15P11 | -0.1547 |
| `UAUAAUGGAAUGAAGCUUC` | ARSK | 0.3135 |
| `UUAAUGCGGACCUCCAUGG` | UNC5A | 0.7536 |
| `AUAUGUACUCUUUGGAGCG` | TIA1 | -1.122 |
| `UACAUCAAUAAGGUAUUCC` | CST8 | 0.02736 |
| `AAUUCGGACAAUACCAGGG` | USP15 | 0.382 |
| `UUUCAUUGUAGCAAUGAUC` | CXCL10 | 0.3808 |
| `UAGAAUAAACUUCAGACCC` | BTLA | 0.1275 |
| `UUUGGUUUAGCCGCCUUGG` | HIST1H1E | 0.4577 |
| `UAUACGACAGGUUCCGAAG` | DHX57 | -0.06204 |

The last 3 entries again:

{"sequence": "UAGAAUAAACUUCAGACCC", "gene": "BTLA", "seed-corrected z-score": "0.1275"}
{"sequence": "UUUGGUUUAGCCGCCUUGG", "gene": "HIST1H1E", "seed-corrected z-score": "0.4577"}
{"sequence": "UAUACGACAGGUUCCGAAG", "gene": "DHX57", "seed-corrected z-score": "-0.06204"}